A short description of this assay: qHTS Assay for Lipid Storage Modulators in Drosophila S3 Cells.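 For cell number change: cells counted by Cell Tracker Red CMTPX staining in the red channel.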 As to conditions: BODIPY lipid droplet fluorescence, 18-24 h; for cell number change: measured here: cell count max response, cells fed with added oleic acid. Put shortly:
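Drosophila S3 cells got compounds at several concentrations plus oleic acid (400 uM solution). Laser-scanning cytometry with 488 nm excitation read lipid droplets at 500-530 nm and cells at 575-640 nm. Percent activity was relative to 20 uM Triacsin C.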
Background: Quantitative high-throughput screening tests each substance at several concentrations.

Where [1] appears, read: measured here: lipid fluorescence (Fed channel) AC50, cells fed with added oleic acid.
Where [2] appears, read: measured here: cell number channel AC50, cells fed with added oleic acid.

Structures are written as SMILES. The list shows a part of the results. Further columns of the screen follow, without active or inactive calls. The list favours compounds with an active or inconclusive main result. Potencies come from curve fits of mixed quality, noted in brackets.

With `COc1ccc(C2=NOC(C(=O)NC(C)C)C2)cc1` (stereo not drawn), the cell number change was -33.9%. Moreover, the AC50 – broadly, the concentration giving half of the maximal activity seen – under setting [1] is 16.4 µM [falling, single point].

Regarding `CCc1ccc(OCc2ccc(C(=O)NCc3ccccn3)o2)cc1`, the half-maximal activity concentration (AC50) under setting [2] is 2.59 µM [rising, single point].

Regarding `COc1ccc(C(=O)NCC(=O)N2CCN(C(=O)c3ccco3)CC2)cc1OC`, the cell number change was -12.5%.

For `CCN(C(=O)CSc1nc2nc(C)cc(C)n2n1)C1CCS(=O)(=O)C1` (stereo not drawn), the AC50 was 0.00461 µM [falling, full curve, poor fit] under setting [2] and 0.58 µM [falling, single point] under setting [1].

On to `COc1ccc2nc(NC(=O)CSc3ccccc3)sc2c1`, for which the AC50 is 2.06 µM [rising, partial curve] under setting [2] and 2.06 µM [rising, partial curve] under setting [1].

As for `CC1CCC2(CC1)C(Nc1cccc(Cl)c1)=NC(=S)N2CC#N` (stereo not drawn), the cell number change was -19.1%. Moreover, the half-maximal activity concentration (AC50) under setting [1] was 29.1 µM [falling, single point].

Regarding `CC(=O)NCCc1nc2cc(NC(=O)c3ccc([N+](=O)[O-])cc3)ccc2n1C`, the cell number change came to 9.15%.

For `O=C(CSCc1ccccc1Cl)Nc1ccc(C(=O)O)cc1`, the cell number change came to 28.5%. Further, the AC50 under setting [1] is 6.51 µM [falling, single point].

Turning to `O=C(CCn1cnnn1)Nc1ccccc1F`, the cell number change was -22.2%. Besides, the AC50 under setting [2] was 2.91 µM [rising, single point]. In addition, the concentration at half-maximal activity (AC50) under setting [1] is 2.31 µM [falling, partial curve].

In the case of `CCOC(=O)c1c(NC(=O)CSc2cccc[n+]2[O-])sc(C(=O)Nc2ccccc2)c1C`, the cell number change was -13.4%. Besides, the half-maximal activity concentration (AC50) under setting [1] is 10.3 µM [falling, single point].

Consider `COc1ccc(C(C(=O)NC2CCCCC2)N(C(=O)c2sc(C)nc2C)c2ccccc2C)cc1` (stereo not drawn), for which the cell number change amounted to 15.6%.

Regarding `CCCC12CN3CCN(CC(C3)/C1=N\NC(=O)c1ccc(F)cc1)C2`, the cell number change stood at 52.3%. The half-maximal activity concentration (AC50) under setting [2] is 18.4 µM [rising, single point]. Further, under setting [1], the AC50 is 18.4 µM [rising, partial curve].

Turning to `Cc1ccc(OCC(=O)NNC(=O)CCc2ccccc2)cc1`, the cell number change is 21.7%. For the same compound, the concentration at half-maximal activity (AC50) under setting [1] is 13 µM [rising, partial curve].

`Cc1c(C(=O)Nc2ccccc2C(=O)N2CCOCC2)cccc1[N+](=O)[O-]`: the cell number change is 13.5%. Under setting [1], the concentration at half-maximal activity (AC50) was 7.31 µM [rising, single point].

Consider `COCCNC(=O)c1cc(-c2cccnc2)nc2ccc(Br)cc12`, for which the cell number change is 77.4%. Also, under setting [2], the concentration at half-maximal activity (AC50) was 1.3 µM [rising, full curve].

With `CCOC(=O)c1cc2c(C)n(-c3ccc(C)cc3)c(C)c2ccc1=O`, the cell number change is -49.5%. Also, the half-maximal activity concentration (AC50) under setting [2] was 29.1 µM [falling, single point].

As for `Cc1noc(C)c1CSc1nnc2scc(-c3ccc(Cl)cc3)n12`, the cell number change is 56.2%. Further, the AC50 under setting [2] was 0.58 µM [rising, full curve]. Further, the AC50 under setting [1] is 0.326 µM [rising, partial curve, poor fit].

`Cc1cc(C(=O)NC2CCCc3c2cnn3-c2ccc(C(C)(C)C)cc2)n[nH]1` (stereo not drawn): the cell number change was -53.6%. For the same compound, the concentration at half-maximal activity (AC50) under setting [2] was 7.31 µM [falling, partial curve, poor fit]. Besides, the concentration at half-maximal activity (AC50) under setting [1] was 0.58 µM [falling, full curve].

In the case of `O=c1ccc(Cc2ccccn2)n[nH]1`, the cell number change turned out to be 11.1%. Besides, the AC50 under setting [1] is 29.1 µM [falling, single point].

Turning to `C/C(=N\NC(=O)c1nnn(-c2nonc2N)c1-c1ccc(Cl)c(Cl)c1)c1ccncc1`, the cell number change came out at 6.73%.

In the case of `CC1Cc2ccccc2N1C(=O)C1CCCN(S(=O)(=O)c2cccc3nsnc23)C1` (stereo not drawn), the concentration at half-maximal activity (AC50) under setting [1] is 25.9 µM [rising, single point].

`CC(C)(C)c1ccc(NC(=O)Cn2cnc3cc([N+](=O)[O-])ccc3c2=O)cc1`: the cell number change stood at 2.77%.

Take `CC1(OCON)CCCc2ccccc21` (stereo not drawn): the cell number change was -8.38%.

On to `COc1ccc2cc(Br)ccc2c1CC(=O)NC1CC(C)(C)NC(C)(C)C1`, for which the cell number change amounted to 0.204%. Besides, the AC50 under setting [1] is 3.66 µM [falling, partial curve].

With `CC1=Nc2ccccc2/C1=C\c1nc(-c2ccc(F)cc2)oc1O`, the AC50 under setting [1] was 23.1 µM [falling, partial curve].

Regarding `COc1ccc(S(=O)(=O)N2CCCCC2)cc1NC(=O)CN(Cc1ccco1)Cc1ccco1`, the cell number change was -5.55%. Also, under setting [1], the half-maximal activity concentration (AC50) was 1.16 µM [falling, full curve, poor fit].

Regarding `O=C(CNC(=O)c1ccc(Br)o1)Nc1ccc(N2CCCCCC2)cc1`, the AC50 under setting [1] is 0.259 µM [rising, full curve, poor fit].

Take `CC(C)c1ccc(NC(=O)CN(Cc2ccccc2)S(C)(=O)=O)cc1`: the cell number change was -39.9%. In addition, the AC50 under setting [2] was 20.6 µM [falling, single point]. Besides, under setting [1], the AC50 is 20.6 µM [falling, partial curve].

For `Cc1csc(NC(=O)C(C)Oc2ccc(Cl)cc2C)n1` (stereo not drawn), the cell number change is -12.4%. In addition, the concentration at half-maximal activity (AC50) under setting [1] was 0.13 µM [rising, full curve, poor fit].

Regarding `O=C(Nc1nc(-c2ccccn2)cs1)c1ncc(Cl)c(Cl)c1Cl`, the cell number change worked out at 13.6%. The AC50 under setting [1] was 6.51 µM [rising, single point].

For `COc1ccc(-c2nc(N)nc(C)c2-c2ccc(Cl)cc2)c(O)c1`, the cell number change is -30.5%. Besides, under setting [2], the half-maximal activity concentration (AC50) was 16.4 µM [falling, partial curve, poor fit]. Besides, the half-maximal activity concentration (AC50) under setting [1] was 16.4 µM [falling, single point].

Turning to `CCN(CC(=O)Nc1c(F)cccc1F)C(=O)c1cn2ccccc2n1`, the cell number change was 12.8%. In addition, under setting [1], the AC50 was 20.6 µM [rising, single point].

As to `CC(=O)Nc1ccc(SCC(=O)c2cc(C)n(-c3ccccc3F)c2C)cc1`, the cell number change stood at 40.3%. Besides, the AC50 under setting [2] was 4.61 µM [falling, partial curve]. For the same compound, the AC50 under setting [1] is 29.1 µM [rising, partial curve].

Regarding `O=C(O)c1ccc(NC(=O)c2cccc(C(=O)Nc3ccc(C(=O)O)cc3)c2)cc1`, the cell number change was -16.2%. The AC50 under setting [1] was 0.13 µM [falling, full curve, poor fit].

As to `CCOc1ccc(NS(=O)(=O)c2ccc(C(=O)NCCCN3CCCC3=O)cc2)cc1`, the cell number change is -3.83%.

For the compound `COc1ccc(C2=NN(CCC(=O)NCc3ccc4c(c3)OCO4)C(=O)CC2)cc1`, the cell number change turned out to be 11.4%. Besides, the AC50 under setting [1] was 14.6 µM [rising, single point].

On to `CCOC(=O)c1cccc(NC(=O)CCn2c(=O)oc3ccccc32)c1`, for which the cell number change is -4.96%. Under setting [1], the half-maximal activity concentration (AC50) was 6.51 µM [rising, single point].

`CN(CC(=O)Nc1ccccc1Br)C(=O)CNC(=O)Cc1cccc2ccccc12`: the cell number change is 42.5%. Under setting [2], the AC50 is 0.82 µM [rising, full curve, poor fit]. Also, the half-maximal activity concentration (AC50) under setting [1] was 29.1 µM [rising, single point].
